# Experimental data reported in the supplement of paper PMC11006884.
# Sequences of proteins named here, by UniProt entry; tags and fusion partners are left off. A change or cut given only in a name is not applied to a line headed by its entry.
# UniProt Q9Y2A7: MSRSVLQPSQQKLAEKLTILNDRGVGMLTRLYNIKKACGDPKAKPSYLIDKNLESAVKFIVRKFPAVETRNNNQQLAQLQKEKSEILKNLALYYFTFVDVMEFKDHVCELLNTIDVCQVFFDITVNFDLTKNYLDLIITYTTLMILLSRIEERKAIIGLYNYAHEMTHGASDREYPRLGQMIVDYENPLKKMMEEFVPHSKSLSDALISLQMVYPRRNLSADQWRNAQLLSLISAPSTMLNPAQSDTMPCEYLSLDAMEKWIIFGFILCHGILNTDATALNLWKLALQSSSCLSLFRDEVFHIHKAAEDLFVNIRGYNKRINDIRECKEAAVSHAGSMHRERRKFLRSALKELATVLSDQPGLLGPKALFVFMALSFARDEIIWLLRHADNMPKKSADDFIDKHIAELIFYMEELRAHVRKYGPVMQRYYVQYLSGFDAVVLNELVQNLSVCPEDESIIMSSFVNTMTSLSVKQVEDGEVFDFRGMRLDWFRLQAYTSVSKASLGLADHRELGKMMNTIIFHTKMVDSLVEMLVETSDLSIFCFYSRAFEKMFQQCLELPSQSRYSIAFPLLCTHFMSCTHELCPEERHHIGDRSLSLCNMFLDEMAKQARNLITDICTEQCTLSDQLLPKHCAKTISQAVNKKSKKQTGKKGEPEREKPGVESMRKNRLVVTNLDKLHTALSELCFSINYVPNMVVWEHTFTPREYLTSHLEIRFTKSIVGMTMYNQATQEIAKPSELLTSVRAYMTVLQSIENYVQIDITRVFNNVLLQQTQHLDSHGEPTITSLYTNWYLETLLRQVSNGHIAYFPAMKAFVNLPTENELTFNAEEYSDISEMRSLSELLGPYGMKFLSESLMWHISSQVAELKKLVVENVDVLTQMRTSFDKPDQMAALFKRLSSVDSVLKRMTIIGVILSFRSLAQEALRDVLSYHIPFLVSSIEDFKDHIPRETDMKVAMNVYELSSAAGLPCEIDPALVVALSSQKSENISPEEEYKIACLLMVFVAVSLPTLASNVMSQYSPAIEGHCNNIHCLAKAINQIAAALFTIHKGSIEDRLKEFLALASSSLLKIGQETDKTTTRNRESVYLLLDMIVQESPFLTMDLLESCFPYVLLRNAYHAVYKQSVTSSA
# UniProt Q9UPN7: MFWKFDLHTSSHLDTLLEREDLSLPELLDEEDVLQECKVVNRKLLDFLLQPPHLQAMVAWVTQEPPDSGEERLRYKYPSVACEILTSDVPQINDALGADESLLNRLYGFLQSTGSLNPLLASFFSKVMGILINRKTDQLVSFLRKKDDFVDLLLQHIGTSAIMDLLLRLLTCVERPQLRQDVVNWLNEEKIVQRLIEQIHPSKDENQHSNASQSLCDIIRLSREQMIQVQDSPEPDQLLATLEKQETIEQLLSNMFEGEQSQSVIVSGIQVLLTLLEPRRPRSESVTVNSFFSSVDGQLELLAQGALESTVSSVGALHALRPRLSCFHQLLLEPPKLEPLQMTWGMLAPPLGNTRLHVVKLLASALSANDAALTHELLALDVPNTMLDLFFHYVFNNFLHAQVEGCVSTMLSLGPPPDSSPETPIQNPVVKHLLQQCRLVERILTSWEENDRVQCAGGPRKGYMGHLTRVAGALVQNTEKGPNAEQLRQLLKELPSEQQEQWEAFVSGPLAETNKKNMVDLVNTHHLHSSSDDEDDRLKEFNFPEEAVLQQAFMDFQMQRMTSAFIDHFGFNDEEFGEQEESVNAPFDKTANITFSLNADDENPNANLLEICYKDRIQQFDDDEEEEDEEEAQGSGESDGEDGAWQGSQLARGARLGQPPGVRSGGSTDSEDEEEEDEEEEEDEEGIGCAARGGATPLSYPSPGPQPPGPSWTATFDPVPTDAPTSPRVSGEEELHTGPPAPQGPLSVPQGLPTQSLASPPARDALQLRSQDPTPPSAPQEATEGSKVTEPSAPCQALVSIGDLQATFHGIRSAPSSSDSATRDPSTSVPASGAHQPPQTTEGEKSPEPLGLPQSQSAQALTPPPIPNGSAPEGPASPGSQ
# UniProt Q9UK61: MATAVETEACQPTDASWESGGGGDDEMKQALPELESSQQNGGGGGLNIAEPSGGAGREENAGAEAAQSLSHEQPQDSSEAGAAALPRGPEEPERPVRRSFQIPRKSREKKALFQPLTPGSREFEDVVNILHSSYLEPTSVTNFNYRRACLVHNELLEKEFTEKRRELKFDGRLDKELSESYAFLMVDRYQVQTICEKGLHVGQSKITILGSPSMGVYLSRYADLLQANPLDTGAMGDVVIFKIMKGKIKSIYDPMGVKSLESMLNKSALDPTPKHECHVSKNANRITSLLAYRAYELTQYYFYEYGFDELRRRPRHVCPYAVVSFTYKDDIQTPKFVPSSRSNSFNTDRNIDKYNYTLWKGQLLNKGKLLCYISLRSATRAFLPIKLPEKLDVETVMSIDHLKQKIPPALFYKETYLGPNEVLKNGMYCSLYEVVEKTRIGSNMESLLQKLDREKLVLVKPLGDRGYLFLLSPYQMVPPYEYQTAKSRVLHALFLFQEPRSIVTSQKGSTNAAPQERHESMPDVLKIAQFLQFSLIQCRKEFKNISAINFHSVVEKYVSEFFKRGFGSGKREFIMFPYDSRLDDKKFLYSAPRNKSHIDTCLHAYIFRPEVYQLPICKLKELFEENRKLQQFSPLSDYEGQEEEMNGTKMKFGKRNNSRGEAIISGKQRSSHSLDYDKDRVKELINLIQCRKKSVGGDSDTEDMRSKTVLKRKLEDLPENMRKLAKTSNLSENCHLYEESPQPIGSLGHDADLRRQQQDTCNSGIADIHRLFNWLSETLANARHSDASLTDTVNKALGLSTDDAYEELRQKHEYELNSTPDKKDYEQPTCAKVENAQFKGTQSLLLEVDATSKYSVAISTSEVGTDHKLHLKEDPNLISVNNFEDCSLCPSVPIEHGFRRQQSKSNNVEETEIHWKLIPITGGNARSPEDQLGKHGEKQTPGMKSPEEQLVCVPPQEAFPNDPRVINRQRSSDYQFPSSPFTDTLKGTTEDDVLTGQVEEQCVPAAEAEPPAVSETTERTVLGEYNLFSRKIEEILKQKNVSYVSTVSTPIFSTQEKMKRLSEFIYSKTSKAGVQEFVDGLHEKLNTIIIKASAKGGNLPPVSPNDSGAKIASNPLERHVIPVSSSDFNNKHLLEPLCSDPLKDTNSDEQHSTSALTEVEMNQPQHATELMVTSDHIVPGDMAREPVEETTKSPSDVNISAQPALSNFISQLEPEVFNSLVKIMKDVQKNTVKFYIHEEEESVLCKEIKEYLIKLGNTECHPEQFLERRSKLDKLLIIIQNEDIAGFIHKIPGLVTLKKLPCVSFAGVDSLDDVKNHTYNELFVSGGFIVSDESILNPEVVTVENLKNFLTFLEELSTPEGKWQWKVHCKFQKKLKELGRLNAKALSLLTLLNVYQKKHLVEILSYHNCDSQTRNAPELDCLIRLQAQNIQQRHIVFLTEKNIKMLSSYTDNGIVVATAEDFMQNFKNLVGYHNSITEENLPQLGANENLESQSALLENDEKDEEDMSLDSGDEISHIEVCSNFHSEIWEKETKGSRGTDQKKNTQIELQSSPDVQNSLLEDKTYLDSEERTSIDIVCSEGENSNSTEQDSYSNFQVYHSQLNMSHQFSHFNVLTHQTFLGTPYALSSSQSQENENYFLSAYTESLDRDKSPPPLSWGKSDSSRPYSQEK
# UniProt Q9Y450, whole entry: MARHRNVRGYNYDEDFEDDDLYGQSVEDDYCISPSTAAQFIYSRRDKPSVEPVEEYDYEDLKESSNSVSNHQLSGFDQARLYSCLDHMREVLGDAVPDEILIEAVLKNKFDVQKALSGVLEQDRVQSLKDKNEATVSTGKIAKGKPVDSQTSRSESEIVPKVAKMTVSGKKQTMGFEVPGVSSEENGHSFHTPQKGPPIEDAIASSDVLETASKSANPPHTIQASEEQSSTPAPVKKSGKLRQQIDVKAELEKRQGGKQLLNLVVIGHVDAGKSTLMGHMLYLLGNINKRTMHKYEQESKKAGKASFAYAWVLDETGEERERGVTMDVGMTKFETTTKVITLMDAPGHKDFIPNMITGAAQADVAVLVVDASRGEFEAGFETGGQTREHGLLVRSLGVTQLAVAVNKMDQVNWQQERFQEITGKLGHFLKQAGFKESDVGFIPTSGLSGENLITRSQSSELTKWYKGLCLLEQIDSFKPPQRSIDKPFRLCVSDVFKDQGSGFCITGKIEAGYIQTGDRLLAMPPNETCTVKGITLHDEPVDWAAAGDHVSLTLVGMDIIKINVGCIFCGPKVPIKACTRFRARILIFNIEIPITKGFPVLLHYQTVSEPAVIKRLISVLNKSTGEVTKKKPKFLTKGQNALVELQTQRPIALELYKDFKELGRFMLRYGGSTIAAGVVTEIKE
# UniProt Q9UNH7: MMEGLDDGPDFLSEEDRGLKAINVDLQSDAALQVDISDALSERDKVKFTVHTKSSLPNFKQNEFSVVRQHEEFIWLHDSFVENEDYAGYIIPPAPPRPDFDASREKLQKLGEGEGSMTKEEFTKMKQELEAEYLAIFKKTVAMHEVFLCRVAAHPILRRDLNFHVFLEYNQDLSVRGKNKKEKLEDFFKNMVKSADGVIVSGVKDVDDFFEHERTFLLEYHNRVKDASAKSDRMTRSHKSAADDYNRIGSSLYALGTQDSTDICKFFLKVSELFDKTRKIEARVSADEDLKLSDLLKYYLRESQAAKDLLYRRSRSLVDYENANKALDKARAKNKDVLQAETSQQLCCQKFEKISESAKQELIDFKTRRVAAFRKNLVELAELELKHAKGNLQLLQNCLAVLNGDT
# UniProt Q9UK45: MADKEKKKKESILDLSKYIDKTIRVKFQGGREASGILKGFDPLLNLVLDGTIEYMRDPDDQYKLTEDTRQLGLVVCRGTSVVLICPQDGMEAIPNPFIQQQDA
# UniProt Q9UHW5, whole entry, looked up: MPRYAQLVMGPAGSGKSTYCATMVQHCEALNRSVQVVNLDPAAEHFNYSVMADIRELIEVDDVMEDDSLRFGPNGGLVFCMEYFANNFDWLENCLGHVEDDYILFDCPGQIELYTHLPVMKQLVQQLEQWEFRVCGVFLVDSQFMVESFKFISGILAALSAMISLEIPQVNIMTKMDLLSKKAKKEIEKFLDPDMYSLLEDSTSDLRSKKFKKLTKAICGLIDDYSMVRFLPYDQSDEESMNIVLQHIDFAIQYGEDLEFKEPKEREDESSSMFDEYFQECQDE
# UniProt Q9ULK4: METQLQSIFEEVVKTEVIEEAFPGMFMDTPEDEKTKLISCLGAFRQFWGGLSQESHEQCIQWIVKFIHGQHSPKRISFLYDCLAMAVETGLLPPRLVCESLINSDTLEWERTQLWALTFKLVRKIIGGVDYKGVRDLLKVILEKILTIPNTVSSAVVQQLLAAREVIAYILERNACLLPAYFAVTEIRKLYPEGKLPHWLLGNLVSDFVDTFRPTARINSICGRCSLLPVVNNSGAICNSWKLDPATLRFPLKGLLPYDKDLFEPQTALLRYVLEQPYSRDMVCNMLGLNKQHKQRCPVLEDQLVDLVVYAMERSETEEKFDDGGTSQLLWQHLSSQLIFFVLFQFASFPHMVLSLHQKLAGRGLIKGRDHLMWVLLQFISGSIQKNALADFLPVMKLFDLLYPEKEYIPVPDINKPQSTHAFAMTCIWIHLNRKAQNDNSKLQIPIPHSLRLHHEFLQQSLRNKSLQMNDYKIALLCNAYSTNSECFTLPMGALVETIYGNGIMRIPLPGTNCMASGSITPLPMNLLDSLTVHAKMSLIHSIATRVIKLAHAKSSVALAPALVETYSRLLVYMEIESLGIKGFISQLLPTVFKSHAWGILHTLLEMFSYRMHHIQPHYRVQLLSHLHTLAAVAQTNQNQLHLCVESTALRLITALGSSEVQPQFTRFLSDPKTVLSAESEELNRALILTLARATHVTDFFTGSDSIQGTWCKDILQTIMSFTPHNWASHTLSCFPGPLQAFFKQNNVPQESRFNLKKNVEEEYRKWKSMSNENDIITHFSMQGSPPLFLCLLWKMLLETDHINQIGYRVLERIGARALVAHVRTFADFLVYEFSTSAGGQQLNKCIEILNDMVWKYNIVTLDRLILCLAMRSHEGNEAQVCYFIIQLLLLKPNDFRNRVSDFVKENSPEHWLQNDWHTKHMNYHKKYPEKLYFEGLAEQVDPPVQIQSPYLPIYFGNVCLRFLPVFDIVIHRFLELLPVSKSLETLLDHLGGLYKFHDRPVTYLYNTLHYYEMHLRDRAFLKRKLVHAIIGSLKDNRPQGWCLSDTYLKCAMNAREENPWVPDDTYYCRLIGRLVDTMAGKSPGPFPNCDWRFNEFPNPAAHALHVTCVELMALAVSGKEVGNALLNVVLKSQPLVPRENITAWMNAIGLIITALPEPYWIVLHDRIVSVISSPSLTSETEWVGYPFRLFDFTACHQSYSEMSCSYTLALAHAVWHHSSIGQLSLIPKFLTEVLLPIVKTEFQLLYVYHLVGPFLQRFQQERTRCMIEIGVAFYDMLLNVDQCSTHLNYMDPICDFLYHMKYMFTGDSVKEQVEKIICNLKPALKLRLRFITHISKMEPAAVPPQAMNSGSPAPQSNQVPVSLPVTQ
# Only a part is listed here, and it is no random draw.
# Compound: COC(=O)C#Cc1ccccc1 [methyl 3-phenylpropiolate]
# Assay: log2 ratio of iodoacetamide-alkyne labeling of the cysteine site, DMSO over compound (competition); higher = stronger covalent engagement of the cysteine by the compound, active = 1 or more
# Settings: 500 µM; treatment time 1 h; system: HEK293T cell lysate
# Outline: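 HEK293T lysate (2 mg/mL) was incubated with electrophile (500 µM) or vehicle for 1 h at ambient temperature and then with iodoacetamide alkyne for 1 h. Labelled proteins were clicked to sCIP-TMT reagents, pooled, digested, enriched on streptavidin and measured by Orbitrap Eclipse LC-MS/MS with FAIMS, with FragPipe quantification. The per-cysteine log2 competition ratio is mean control-channel reporter intensity over mean compound-channel reporter intensity. Across three replicates with duplicate channels, cysteines quantified in only one replicate were excluded.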
row,Target,log2 ratio of iodoacetamide-alkyne labeling
1,SRRM2 C2116 (UniProt Q9UQ35),inactive: 0.88
2,BAZ1B C953 (UniProt Q9UIG0),active: 1.28
3,UniProt Q9ULE6_C845,inactive: 0.84
4,USP24 C1628 (UniProt Q9UPU5),inactive: 0.657
5,MTMR6 C569 (UniProt Q9Y217),inactive: 0.632
6,SLC39A10 C153 (UniProt Q9ULF5),inactive: 0.358
7,GTF3C4 C129 (UniProt Q9UKN8),inactive: 0.717
8,NCKAP1 C622 (UniProt Q9Y2A7),inactive: 0.408
9,TTF2 C785 (UniProt Q9UNY4),inactive: 0.282
10,MCTS1 C113 (UniProt Q9ULC4),inactive: -0.0609
11,UniProt Q9Y224_C19,inactive: -0.00633
12,NFU1 C210 (UniProt Q9UMS0),active: 1.06
13,CORO1C C420 (UniProt Q9ULV4),inactive: 0.977
14,LUC7L2 C43 (UniProt Q9Y383),inactive: -0.0371
15,MINPP1 C337 (UniProt Q9UNW1),inactive: 0.503
16,TRMT6 C492 (UniProt Q9UJA5),inactive: 0.642
17,HECTD1 C1368 (UniProt Q9ULT8),inactive: 0.751
18,UniProt Q9UPN7_C795,inactive: 0.136
19,UniProt Q9UK61_C538,inactive: 0.279

# Two successive records from above, for reference:
row,Target,log2 ratio of iodoacetamide-alkyne labeling
14,LUC7L2 C43 (UniProt Q9Y383),inactive: -0.0371
15,MINPP1 C337 (UniProt Q9UNW1),inactive: 0.503

# More records:

row,Target,log2 ratio of iodoacetamide-alkyne labeling
1,GPATCH8 C569 (UniProt Q9UKJ3),inactive: 0.815
2,HBS1L C31 (UniProt Q9Y450),inactive: 0.168
3,MSRB2 C105 (UniProt Q9Y3D2),inactive: 0.956
4,SH3BP1 C338 (UniProt Q9Y3L3),inactive: 0.144
5,EXO1 C608 (UniProt Q9UQ84),inactive: 0.283
6,EXOSC1 C40 (UniProt Q9Y3B2),inactive: 0.2
7,SNX6 C264 (UniProt Q9UNH7),inactive: -0.136
8,MBD1 C57 (UniProt Q9UIS9),inactive: 0.0108
9,LSM7 C85 (UniProt Q9UK45),inactive: 0.29
10,GPN3 C281 (UniProt Q9UHW5),inactive: -0.0834
11,MTMR6 C214 (UniProt Q9Y217),inactive: -0.0163
12,DERA C118 (UniProt Q9Y315),inactive: 0.275
13,MRPL11 C50 (UniProt Q9Y3B7),inactive: -0.0706
14,PACSIN3 C421 (UniProt Q9UKS6),inactive: 0.00259
15,MSRB2 C45 (UniProt Q9Y3D2),inactive: -0.132
16,TRIM33 C145 (UniProt Q9UPN9),inactive: 0.21
17,MED23 C1069 (UniProt Q9ULK4),inactive: 0.655
18,STOML2 C167 (UniProt Q9UJZ1),inactive: -0.163
